Measured values: article PMC13571933, “Active transport by cytoplasmic dynein sustains dendritic MAP2 localization in developing neurons” (The Journal of Biological Chemistry, 2026)
These are yes or no findings as the source states them, for the method shown. In cells and extracts the contact can be indirect. Some entries that bind do so weakly or less than the wild type. For some assays here: Tags and fused reporters may be left off the sequences shown.

The chains behind the UniProt entries cited, without tags or fusion partners.
UniProt P20357: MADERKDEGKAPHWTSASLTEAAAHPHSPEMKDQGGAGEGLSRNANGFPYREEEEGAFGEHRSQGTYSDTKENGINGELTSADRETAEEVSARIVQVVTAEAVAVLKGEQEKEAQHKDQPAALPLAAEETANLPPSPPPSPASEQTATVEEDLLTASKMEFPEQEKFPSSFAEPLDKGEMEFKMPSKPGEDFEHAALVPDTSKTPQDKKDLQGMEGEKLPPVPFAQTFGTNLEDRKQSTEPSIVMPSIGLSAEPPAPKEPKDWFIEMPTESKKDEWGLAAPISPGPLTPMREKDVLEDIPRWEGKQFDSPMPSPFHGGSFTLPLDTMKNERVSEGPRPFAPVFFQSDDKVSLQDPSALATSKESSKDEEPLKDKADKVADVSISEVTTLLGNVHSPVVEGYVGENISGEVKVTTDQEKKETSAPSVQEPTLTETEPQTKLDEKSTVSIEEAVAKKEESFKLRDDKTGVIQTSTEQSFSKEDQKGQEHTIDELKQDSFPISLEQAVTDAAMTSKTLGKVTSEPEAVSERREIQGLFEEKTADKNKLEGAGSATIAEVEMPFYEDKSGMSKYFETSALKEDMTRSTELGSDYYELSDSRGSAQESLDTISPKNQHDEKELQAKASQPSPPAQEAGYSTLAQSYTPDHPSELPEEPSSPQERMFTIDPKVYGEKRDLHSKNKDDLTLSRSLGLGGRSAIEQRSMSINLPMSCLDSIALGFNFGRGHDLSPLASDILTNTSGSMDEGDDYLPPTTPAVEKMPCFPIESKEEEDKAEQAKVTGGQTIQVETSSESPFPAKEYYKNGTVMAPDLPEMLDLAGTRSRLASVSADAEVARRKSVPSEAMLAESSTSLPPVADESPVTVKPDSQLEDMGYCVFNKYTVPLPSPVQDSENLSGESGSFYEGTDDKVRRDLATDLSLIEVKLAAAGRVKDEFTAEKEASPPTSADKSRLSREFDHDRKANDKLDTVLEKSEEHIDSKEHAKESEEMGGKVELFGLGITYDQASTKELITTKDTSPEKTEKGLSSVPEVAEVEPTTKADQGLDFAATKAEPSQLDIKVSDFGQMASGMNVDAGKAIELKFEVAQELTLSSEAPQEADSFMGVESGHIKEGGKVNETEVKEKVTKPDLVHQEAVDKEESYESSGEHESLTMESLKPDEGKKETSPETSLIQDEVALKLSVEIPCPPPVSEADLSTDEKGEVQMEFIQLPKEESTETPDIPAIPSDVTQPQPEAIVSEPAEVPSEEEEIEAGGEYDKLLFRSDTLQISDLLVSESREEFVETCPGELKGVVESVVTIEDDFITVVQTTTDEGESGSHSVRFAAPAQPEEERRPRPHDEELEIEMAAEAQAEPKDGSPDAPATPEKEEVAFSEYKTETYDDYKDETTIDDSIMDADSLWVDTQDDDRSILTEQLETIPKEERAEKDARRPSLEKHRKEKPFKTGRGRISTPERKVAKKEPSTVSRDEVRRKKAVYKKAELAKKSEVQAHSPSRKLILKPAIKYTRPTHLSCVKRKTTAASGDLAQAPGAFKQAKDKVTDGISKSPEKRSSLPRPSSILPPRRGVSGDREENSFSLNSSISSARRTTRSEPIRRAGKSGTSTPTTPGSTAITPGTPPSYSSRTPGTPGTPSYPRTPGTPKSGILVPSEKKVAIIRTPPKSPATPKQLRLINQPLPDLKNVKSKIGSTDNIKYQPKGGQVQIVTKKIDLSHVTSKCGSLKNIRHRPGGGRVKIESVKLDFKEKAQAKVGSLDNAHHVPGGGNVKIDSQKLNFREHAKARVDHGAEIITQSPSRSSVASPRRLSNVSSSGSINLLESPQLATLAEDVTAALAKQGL
UniProt Q9JHU4: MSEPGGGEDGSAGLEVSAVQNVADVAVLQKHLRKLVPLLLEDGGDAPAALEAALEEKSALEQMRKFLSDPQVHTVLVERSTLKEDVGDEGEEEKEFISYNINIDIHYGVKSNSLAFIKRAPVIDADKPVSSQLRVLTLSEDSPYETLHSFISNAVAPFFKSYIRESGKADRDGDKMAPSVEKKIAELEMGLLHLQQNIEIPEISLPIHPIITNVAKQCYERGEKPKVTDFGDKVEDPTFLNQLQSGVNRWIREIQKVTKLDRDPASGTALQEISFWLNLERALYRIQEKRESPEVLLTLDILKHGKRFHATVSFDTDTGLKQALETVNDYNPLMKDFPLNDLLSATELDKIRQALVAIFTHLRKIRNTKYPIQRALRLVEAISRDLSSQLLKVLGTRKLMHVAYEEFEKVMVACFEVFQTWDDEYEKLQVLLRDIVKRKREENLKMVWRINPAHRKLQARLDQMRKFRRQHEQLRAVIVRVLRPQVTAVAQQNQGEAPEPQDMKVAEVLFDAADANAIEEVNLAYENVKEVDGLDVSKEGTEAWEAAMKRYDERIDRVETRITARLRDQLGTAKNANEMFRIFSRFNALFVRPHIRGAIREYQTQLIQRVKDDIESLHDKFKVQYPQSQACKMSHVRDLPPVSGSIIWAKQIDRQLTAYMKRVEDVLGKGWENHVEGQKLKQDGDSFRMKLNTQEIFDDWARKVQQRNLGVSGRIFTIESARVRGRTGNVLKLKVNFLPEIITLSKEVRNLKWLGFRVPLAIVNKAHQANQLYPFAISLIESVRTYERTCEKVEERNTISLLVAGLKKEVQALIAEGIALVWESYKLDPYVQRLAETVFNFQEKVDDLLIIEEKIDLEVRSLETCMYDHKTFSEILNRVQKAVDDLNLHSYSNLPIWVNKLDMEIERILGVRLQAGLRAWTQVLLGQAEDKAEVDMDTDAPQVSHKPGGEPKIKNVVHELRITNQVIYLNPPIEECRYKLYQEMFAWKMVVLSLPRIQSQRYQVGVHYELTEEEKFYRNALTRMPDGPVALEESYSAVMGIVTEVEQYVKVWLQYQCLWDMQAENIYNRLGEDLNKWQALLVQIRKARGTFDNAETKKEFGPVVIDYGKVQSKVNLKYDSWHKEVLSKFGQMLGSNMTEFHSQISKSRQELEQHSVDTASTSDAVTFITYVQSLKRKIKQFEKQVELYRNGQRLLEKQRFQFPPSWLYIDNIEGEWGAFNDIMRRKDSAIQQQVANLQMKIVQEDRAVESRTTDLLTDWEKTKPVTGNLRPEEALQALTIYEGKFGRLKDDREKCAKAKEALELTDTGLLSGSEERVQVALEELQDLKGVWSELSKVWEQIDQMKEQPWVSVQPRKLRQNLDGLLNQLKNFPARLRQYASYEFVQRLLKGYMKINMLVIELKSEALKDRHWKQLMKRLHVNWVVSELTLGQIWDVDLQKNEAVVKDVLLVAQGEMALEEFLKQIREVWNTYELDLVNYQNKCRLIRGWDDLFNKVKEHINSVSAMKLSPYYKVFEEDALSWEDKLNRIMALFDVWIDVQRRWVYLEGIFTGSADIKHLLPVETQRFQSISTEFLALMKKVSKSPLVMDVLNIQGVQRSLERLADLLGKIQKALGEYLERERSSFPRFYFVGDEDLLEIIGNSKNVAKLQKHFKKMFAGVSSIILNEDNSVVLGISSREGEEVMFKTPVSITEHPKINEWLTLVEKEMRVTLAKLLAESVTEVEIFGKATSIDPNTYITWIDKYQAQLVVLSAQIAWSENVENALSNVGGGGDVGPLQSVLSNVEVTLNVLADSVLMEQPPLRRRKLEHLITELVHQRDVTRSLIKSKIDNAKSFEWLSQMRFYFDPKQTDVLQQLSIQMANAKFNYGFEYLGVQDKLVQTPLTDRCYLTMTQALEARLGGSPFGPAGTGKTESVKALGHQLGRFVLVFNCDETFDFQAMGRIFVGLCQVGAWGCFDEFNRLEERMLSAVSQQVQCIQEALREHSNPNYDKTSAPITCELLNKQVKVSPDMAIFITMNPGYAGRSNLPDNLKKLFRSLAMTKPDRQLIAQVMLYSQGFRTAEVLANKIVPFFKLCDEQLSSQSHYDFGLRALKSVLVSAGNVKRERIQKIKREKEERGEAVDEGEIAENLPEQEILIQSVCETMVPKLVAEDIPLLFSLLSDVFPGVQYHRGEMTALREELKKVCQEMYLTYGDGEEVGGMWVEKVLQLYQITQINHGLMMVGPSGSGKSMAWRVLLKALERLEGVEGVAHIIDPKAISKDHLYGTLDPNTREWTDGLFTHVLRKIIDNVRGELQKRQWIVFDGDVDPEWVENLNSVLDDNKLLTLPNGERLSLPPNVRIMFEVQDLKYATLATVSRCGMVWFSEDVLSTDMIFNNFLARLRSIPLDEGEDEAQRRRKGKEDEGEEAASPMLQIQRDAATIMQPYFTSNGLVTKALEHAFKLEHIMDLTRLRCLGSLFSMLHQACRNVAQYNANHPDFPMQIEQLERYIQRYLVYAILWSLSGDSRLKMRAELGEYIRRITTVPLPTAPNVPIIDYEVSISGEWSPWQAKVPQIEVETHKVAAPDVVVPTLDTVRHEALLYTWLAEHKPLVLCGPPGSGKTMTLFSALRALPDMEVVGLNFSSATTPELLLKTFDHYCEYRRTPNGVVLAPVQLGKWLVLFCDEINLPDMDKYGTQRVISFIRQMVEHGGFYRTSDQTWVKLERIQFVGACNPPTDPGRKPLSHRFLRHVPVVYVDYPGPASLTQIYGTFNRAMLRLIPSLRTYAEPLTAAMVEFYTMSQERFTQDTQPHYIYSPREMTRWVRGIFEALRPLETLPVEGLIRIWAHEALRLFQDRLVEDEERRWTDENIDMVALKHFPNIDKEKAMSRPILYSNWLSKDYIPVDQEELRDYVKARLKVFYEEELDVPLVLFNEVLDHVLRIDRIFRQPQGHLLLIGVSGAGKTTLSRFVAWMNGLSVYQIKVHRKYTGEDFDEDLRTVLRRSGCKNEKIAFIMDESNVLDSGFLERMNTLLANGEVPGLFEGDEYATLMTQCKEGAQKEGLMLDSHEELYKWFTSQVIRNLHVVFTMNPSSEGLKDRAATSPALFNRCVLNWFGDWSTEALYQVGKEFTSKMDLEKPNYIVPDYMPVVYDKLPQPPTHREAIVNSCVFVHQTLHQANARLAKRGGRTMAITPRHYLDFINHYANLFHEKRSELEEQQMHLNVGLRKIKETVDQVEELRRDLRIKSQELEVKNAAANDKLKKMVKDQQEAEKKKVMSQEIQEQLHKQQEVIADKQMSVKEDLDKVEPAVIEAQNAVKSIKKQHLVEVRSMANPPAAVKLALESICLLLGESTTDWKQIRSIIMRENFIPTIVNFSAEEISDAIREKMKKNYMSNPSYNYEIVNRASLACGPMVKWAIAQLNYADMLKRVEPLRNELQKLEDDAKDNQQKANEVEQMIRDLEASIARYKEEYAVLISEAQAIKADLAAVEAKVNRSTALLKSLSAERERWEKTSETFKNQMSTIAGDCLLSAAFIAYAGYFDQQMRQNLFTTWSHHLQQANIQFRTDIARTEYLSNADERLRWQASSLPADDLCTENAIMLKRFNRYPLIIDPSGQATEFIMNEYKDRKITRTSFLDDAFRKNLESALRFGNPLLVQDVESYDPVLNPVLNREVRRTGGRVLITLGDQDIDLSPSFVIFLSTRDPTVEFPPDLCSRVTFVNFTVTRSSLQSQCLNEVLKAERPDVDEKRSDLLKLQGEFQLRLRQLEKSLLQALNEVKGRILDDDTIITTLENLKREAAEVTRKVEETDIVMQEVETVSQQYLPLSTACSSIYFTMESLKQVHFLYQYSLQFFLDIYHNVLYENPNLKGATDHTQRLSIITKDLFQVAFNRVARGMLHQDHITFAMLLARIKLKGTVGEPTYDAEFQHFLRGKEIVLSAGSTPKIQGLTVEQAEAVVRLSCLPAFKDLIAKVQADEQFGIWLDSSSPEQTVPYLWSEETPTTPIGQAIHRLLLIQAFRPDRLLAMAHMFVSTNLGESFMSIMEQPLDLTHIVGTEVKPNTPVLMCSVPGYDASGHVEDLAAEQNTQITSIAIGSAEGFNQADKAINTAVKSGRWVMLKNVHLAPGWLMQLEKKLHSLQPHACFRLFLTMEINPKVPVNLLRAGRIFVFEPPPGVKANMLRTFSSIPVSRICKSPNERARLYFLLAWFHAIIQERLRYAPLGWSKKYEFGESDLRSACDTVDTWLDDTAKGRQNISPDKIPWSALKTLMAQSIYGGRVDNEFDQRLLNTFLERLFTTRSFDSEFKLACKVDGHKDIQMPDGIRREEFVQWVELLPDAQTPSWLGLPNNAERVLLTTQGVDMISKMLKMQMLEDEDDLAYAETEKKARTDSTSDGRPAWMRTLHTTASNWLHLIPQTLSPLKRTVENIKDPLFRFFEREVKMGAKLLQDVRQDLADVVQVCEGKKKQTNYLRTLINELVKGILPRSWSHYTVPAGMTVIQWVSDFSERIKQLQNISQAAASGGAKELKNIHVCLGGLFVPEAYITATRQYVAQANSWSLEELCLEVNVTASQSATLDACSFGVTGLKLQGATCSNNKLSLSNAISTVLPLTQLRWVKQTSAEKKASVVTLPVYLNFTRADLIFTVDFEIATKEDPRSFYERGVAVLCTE

What was measured:
[1] = molecular target: MAP2, long isoforms (high molecular weight MAP2), endogenous in mouse brain (mouse (endogenous in brain)) (UniProt P20357); assay: co-IP; anti-MAP2 (MAP2N) on Dynabeads Protein G; adult mouse brain lysate in microtubule stabilizing buffer (0.1 M MES pH 6.8, 10% glycerol, 0.5% Triton X-100, taxol, GTP); 30 min at 4 °C; rabbit IgG as negative control; blot for MAP2 and DHC1
[2] = molecular target: T1, GFP-MAP2C (human MAP2C tagged with AcGFP and 6xHis, wild type), expressed in HEK293 cells (human) (UniProt P11137); assay: co-IP; anti-His antibody on Dynabeads Protein G; 500 μg lysate of HEK293 cells co-expressing DHC1 and GFP-His-MAP2C; 50 mM Hepes pH 7.4, 100 mM NaCl, 2 mM EDTA, 0.5% Triton X-100; 1 h at 4 °C; blot with anti-DHC1 and anti-GFP, bands quantified with ImageJ
T1 sequence: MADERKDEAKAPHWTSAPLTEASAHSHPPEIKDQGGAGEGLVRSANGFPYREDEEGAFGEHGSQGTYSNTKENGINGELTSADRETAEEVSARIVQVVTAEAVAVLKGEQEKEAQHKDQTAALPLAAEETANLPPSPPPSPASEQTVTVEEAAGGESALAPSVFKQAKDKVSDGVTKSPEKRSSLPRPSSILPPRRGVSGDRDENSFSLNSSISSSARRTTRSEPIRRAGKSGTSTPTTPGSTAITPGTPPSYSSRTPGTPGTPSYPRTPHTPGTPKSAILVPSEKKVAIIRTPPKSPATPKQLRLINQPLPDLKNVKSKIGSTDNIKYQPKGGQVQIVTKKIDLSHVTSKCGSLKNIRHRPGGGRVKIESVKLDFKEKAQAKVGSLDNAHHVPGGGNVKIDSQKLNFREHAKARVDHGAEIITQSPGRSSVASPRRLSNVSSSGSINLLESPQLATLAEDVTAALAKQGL

binding [1] | binding [2] | Substance
binds | – | cytoplasmic dynein heavy chain 1 (DHC1), endogenous in mouse brain (from UniProt Q9JHU4 1-4644)
– | binds | cytoplasmic dynein heavy chain 1 (DHC1), expressed from a plasmid in HEK293 cells (from UniProt Q14204 1-4646)
